# Experimental data: patent publication US20130052660A1
# Positions count from the first letter of the chain named. These are yes or no findings as the source states them, for the method shown. Some results given as binding are weak or reduced against the parent protein; the word gives no strength. Tags and fused reporters may be left off the sequences shown.
# B1: LZ1-RFP fusion protein (leucine zipper 1 fused at the N-terminus of RFP) (peptide, not shown: large carriers)
# chain: EQLEKKLQALEKKLAQLEWKNQALEKKLAQ
# B2: mLZ1(13/25/27)-RFP fusion protein (peptide, not shown: large carriers)
# chain: B1 chain with K13E, E25K, K27E
# B3: mLZ1(11)-RFP fusion protein (peptide, not shown: large carriers)
# chain: B1 chain with E11K
# B4: mLZ1(25)-RFP fusion protein (peptide, not shown: large carriers)
# chain: B1 chain with E25K
# B5: mLZ1(4/27)-RFP fusion protein (peptide, not shown: large carriers)
# chain: B1 chain with E4K, K27E
# Molecular target: LZ2-GFP-CBD fusion protein (leucine zipper 2 linked at the N-terminus of GFP-CBD) (Cellulomonas fimi)
# Assay: FCIB, flow cytometry (FL1/FL2) of E. coli co-expressing both proteins
row,binding,Binder
1,binds,B1

# Molecular target: LZ2-GFP-CBD fusion protein (leucine zipper 2 linked at the N-terminus of GFP-CBD) (Cellulomonas fimi)
# Assay: FCIB, fluorescence microscopy of E. coli co-expressing both proteins
row,binding,Binder
1,binds,B2
2,binds,B3
3,binds,B4
4,binds,B1
5,binds,B5
